Test: Moulding process: time to stable tablets (consolidation/solidification time) and liquid amount after wetting the powder
Format: physicochemical
Conditions: for amount of water needed: per 100 mg powder; for optimal amount of liquid with regard to powder mass (μl liquid to mg powder): water
Procedure: α-Lactose anhydrate was transferred into wells of a moulding form and wetted with pure water and water/alcohol mixtures, as shown in FIG. 2. Pure water and aqueous EtOH solutions, 25% (v/v) and 50% EtOH (v/v), ratio by volume, were used as solvents. These experiments were performed to measure the time needed for the formation of stable tablets, to determine the optimal amount of solvent, and to determine the optimal water:alcohol ratio in water/alcohol mixtures.
The solidification time (time until the tablets show sufficient hardness for handling) after addition of the solvent was determined using pure water and an aqueous glucose solution. It was observed that the solidification time of anhydrous glucose is much shorter when glucose solutions are applied instead of pure water. Glucose anhydrate solidifies after 10-15 min when water is used but hardens within 2-6 minutes after the application of glucose solutions. The amount of glucose in the solution is less critical for the solidification time, a concentration of 25 wt % is sufficient.
The moulding form tests were carried out with two different solvents: a) water and b) 50% EtOH (v/v) solution.
In a first experiment, tablets with amorphous Ca-L-Lactate (L-CaLac) using pure water were produced.
Wetting partly anhydrous MgSO4 (7 wt % water content) with pure water results in solid tablets. After 5 minutes the tablets can be unbaged from the moulding form. The wettability is not as good as for the α-lactose powders. About 50-60 μl water were added per 100 mg powder. By using a saturated aqueous solution of MgSO4 the hardening time could be halved (2-3 minutes).

Structure (SMILES) | Powder/liquid ratio (μl liquid to mg powder) (solution: water, moulding) | amount of water needed | Powder/liquid ratio (μl liquid to mg powder) (solution: aqueous glucose solution (25-50 wt %)) [%] | optimal amount of liquid with regard to powder mass (μl liquid to mg powder) | amount of liquid relative to powder mass needed (aqueous ethanol solutions)
O.O=S(=O)([O-])[O-].O=S(=O)([O-])[O-].[Ca+2].[Ca+2] [Calcium sulphate hemihydrate, reference compound] | 100% | – | – | – | –
O=S(=O)([O-])[O-].[Na+].[Na+] [Na2SO4 anhydrate] | ca. 15%^ | about 18 μl | – | – | –
OC[C@H]1OC(O)[C@H](O)[C@@H](O)[C@@H]1O (stereo partly drawn) [Glucose anhydrate] | 30% | ca. 30 μl | 30 | – | –
C[C@H](O)C(=O)[O-].C[C@H](O)C(=O)[O-].[Ca+2] [Ca-Lactate anhydrate, anhydrous Ca-Lactate] | 35-40% | – | – | 40% | –
OC[C@H]1O[C@H](OC[C@H]2O[C@H](O[C@]3(CO)O[C@H](CO)[C@@H](O)[C@@H]3O)[C@H](O)[C@@H](O)[C@@H]2O)[C@H](O)[C@@H](O)[C@H]1O [Raffinose anhydrate] | ca. 30%^ | – | – | – | –
O=S(=O)([O-])[O-].[Mg+2] [MgSO4 anhydrate] | 50-60% | – | – | 50-60% | –
O=C([O-])CC(O)(CC(=O)[O-])C(=O)[O-].O=C([O-])CC(O)(CC(=O)[O-])C(=O)[O-].[Mg+2].[Mg+2].[Mg+2] [Mg Citrate anhydrate, anhydrous Mg Citrate] | 40-50% | – | – | – | –
OC[C@H]1O[C@@H](O[C@H]2[C@H](O)[C@@H](O)[C@@H](O)O[C@@H]2CO)[C@H](O)[C@@H](O)[C@H]1O [Stable α-Lactose anhydrate] | 50-60% | – | – | 50-60% | 90-100%
